In paper PMC10353116:
These are yes or no findings as the source states them, for the method shown. Binding seen in cells or lysates may run through a third protein. Some entries that bind do so weakly or less than the wild type.

Chains of the proteins cited; added tags and fusions are not shown. Residues count along the entry.
UniProt Q9H6L5: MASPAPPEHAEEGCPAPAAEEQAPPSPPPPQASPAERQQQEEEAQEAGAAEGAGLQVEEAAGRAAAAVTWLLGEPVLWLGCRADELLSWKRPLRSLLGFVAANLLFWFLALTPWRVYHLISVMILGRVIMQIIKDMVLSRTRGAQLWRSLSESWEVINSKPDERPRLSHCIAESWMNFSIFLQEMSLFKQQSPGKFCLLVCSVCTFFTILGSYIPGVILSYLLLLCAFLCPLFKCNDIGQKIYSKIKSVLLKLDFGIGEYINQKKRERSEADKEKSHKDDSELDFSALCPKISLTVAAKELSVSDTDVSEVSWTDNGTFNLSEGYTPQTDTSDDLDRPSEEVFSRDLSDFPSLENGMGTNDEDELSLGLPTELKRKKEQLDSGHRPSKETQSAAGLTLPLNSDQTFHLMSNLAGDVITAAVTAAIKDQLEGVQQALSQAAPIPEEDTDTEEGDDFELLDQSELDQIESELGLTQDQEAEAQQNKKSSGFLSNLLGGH
UniProt P36888, residues 27-993: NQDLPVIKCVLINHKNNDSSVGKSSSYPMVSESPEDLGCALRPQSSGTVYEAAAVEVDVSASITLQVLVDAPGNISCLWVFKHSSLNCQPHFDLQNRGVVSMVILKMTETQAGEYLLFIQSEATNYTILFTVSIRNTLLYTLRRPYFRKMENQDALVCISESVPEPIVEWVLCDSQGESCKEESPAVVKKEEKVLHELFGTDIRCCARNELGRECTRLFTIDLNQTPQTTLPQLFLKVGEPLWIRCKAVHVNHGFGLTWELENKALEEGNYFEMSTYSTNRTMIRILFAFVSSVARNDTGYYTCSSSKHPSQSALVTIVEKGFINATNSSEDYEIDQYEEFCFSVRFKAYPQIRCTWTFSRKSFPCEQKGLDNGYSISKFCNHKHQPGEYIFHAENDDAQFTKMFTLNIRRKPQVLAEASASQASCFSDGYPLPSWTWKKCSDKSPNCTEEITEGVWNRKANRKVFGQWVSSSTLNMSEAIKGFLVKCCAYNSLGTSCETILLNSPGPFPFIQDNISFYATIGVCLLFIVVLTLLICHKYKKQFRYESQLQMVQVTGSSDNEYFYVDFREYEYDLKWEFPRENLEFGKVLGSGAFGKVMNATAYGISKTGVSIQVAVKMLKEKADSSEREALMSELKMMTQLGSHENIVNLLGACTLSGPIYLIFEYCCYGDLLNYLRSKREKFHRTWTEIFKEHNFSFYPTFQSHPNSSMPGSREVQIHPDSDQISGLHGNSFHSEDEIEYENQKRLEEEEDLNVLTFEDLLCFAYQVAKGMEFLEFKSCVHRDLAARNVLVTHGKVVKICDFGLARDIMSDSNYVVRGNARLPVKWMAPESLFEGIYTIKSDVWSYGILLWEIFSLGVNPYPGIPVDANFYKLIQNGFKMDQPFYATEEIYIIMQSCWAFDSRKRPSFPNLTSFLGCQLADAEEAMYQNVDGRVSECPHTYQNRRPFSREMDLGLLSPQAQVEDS

Target: Family with sequence similarity 134 member B (FAM134B) (human) (UniProt Q9H6L5)
Experiment: co-IP; co-immunoprecipitation of FAM134B and FLT3; cells, antibodies and direction not stated

## FMS related receptor tyrosine kinase 3 (FLT3) (from UniProt P36888 27-993)
  binding: binds
